Experimental findings from article PMC4176325 are described below.

Results are given in words; binding and its absence hold for the method and conditions named. Sequences can lack the tags named with a protein.

In this assay the target is intron debranching enzyme (Dbr1) from Entamoeba histolytica (Entamoeba histolytica) (UniProt C4M1P9). The experiment in a line: AUC; sedimentation velocity; Dbr1 at 0.3 mg/ml, 40 000 rpm, 20°C, 20 mM HEPES pH 7.4, 100 mM NaCl; van Holde-Weischet, 2D spectrum and genetic algorithm analyses (ULTRASCAN); both purified.

B1: intron debranching enzyme (Dbr1) from Entamoeba histolytica (enzyme, UniProt C4M1P9 1-354)
chain: MATEQIQHIAIVGCVHGKYREMYRQLSEYEKSTGKEISFVICTGDMQTLRYEADLVYLKVPPKYKQMGDFHLYYEGKEKAPYLTLFIGGNHESSNVLLHLYNGGFVCFNMYYLGVCSCININGLRIVGVSGIYKSFDEKKPYTYPPSPNDVVSLFHTRNYVIQMLSNLSQSSQIDISLSHDWPQGIVMKGNYKQLYRFQPGFKKDGASLGSPINKVILNTLKPKYWISGHMHCEYHAEEGPTHFIALGKIGYKNAISYLDLPLKQKTDLEYDKDWVCNLIMTWPAFSNKAQFPDLSYSISELLSKRTKELDKKIIELWEKYIGLKIIYDSDTFDIQFTSRRFYIEKIYNELNIN
Consider B1, for which the binding entry is “no binding (tested: 0.3 mg/ml)”.
